From ChEMBL document CHEMBL3988442, “University of Dundee, Small-Polar-MMV Screening Library” (2021).

Mtb glucose medium: 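Growth of Mycobacterium tuberculosis over 3 days (7H9 medium with glucose and tyloxapol); the read-out is not stated. Concentration: 500 µM. Direction is inferred from retests: higher values go with more growth inhibition. Of about 18,000 compounds tested this way, about 1,400 (7.9%) reached 50% or more in at least one test.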
Mtb cholesterol medium: 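Whole-cell growth test on Mycobacterium tuberculosis, read after 4 days in a medium based on cholesterol and the lipid DPPC; the read-out is not stated. Concentration: 500 µM. Higher reads as more growth inhibition (inferred: compounds with an IC50 in retests scored well above the rest). Size under these conditions: about 18,000 compounds, about 900 of them at 50% or above in at least one test.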

Results are given as percent effect. How 0% and 100% were set is not recorded. Most values in the screen are low, and negative values occur. Compounds were drawn at random from those tested, without regard to their results.

| structure | Mtb glucose medium | Mtb cholesterol medium |
|---|---|---|
| `CC(C)(C)OC(=O)N1CCN2C(=O)NCC2C1` (stereo unspecified) | -6.05 | -17.81 |
| `COCCC1(CN2CCCC(C(N)=O)C2)CCC1` (stereo unspecified) | 9.431 | 2.961 |
| `O=C(CCC(F)(F)F)NCCNC1CC1` | 40.39 | 35.49 |
| `NCCC1CN(CCn2cc(Cl)cn2)CCO1` (stereo unspecified) | 6.496 | 6.97 |
| `Cc1c[nH]c(C(=O)NC(c2nccn2C)C2CC2)n1` (stereo unspecified) | 16.32 | 7.004 |
| `Cc1cnn(CCNCc2nccn2C)c1` | 64.85 | 70.25 |
| `CN(Cc1ccnn1C)S(=O)(=O)c1cccs1` | 32.56 | 30.3 |
| `CC(CC(=O)NC1CC1)NC(=O)c1ccccc1` (stereo unspecified) | -0.6631 | 2.555 |
| `CCNc1ncc(C(=O)NCc2cnc(C)cn2)cn1` | 14.72 | 4.629 |
| `CC(C(=O)NC1CCCC1)N1CCNCC1` (stereo unspecified) | -0.8422 | 11.97 |
| `Cc1nc(N)sc1C#N` | 13.45 | 5.238 |
| `CN1CCC(NC(=O)COc2ccccc2F)CC1` | 6.288 | -10.46 |
| `O=C(CN1CCCN(CC2CC2)CC1)N1CCCC1` | 5.749 | 5.955 |
| `NC[C@@H]1CC(=O)N(C2CC2)[C@H]1c1ccncc1` | 0.3532 | -8.112 |
| `N#Cc1ccc(C(=O)NCCCN2CCCCC2)cc1` | 10.59 | -0.2682 |
| `O=C(Cc1cccc(F)c1F)NCC1CCNCC1` | 9.415 | 4.026 |
| `C1CC(N2CCN(CC3CC3)CC2)CCN1` | -25.69 | -9.908 |
| `CN(C1CCNCC1)C1CCOCC1` | -9.425 | 3.985 |
| `CN(C)C(=O)C(C)(C)NC(=O)[C@H](O)c1ccccc1Cl` | -1.913 | 1.338 |
| `Cc1ncsc1C(=O)NCC(C)(C)CN(C)C` | 3.412 | 6.499 |
| `Cn1cc(C2NC(=O)CC[C@@H]2N)cn1` (stereo partly specified) | 3.155 | 0.1008 |
| `Cc1nc(CC(=O)NCCSc2nnnn2C)c(C)s1` | 24.08 | 31.32 |
| `CN(c1ccc(F)cc1)S(=O)(=O)N1CCCCC1` | 68.94 | 63.77 |
| `Cc1nsc(N2CCCN(CC(=O)NC3CC3)CC2)n1` | 8.593 | 8.352 |
| `COCc1nc(C(=O)NC2CCC(O)CC2)cs1` (stereo unspecified) | 7.036 | 7.728 |
| `NS(=O)(=O)C1CCN(Cc2ccc(Br)c(F)c2)C1` (stereo unspecified) | 58.15 | 44.21 |
| `COC(=O)Cc1ccoc1` | -5.18 | -4.418 |
| `CN(C)CCCNC(N)=O` | 1.919 | -10.23 |
| `O=C(COC(=O)CCC(=O)c1cccs1)NC1CC1` | 0.7476 | -3.695 |
| `Cn1ccc(CNC(=O)c2cc3ncc(Br)cn3n2)n1` | 7.02 | 13.4 |
| `O=C(CCC1CCCC1)N1CCNCC1` | 41.86 | 34.01 |
| `Cc1cc(C(=O)NCC2(O)CCNC2)cc(=O)[nH]1` (stereo unspecified) | -8.376 | -13.92 |
| `Cc1csc(CCCNC(=O)Cn2nc(C)cc2N)n1` | 45.27 | 10.83 |
| `CC1(C)CN(c2nccnc2C#N)CCS1(=O)=O` | -17.09 | -14.7 |
| `O=C(COCc1ccccc1)N[C@@H]1CCOC[C@H]1O` | 10.32 | 7.088 |
| `COc1ccccc1NCCO` | 28.13 | 3.514 |
| `COc1ccc(C(N)CO)c2ccccc12` (stereo unspecified) | 59.19 | 55.94 |
| `COc1ccc(NC(=O)c2ccc(S(N)(=O)=O)o2)cc1` | 53.45 | 16.55 |
| `Cc1ccn2c(C(=O)N[C@@H]3CC[C@@H](N)C3)c(C)nc2c1` | 39.74 | 5.044 |
| `N#CCCN1CCN(C(=O)c2ccc(Cl)cc2F)CC1` | 43.31 | 7.28 |
| `O=C(NC1CCCC1)c1nc2ncccn2n1` | 11.38 | 13.91 |
| `NC1CC(c2cc(NCC3(CO)CCC3)ncn2)C1` (stereo unspecified) | 22.24 | 13.36 |
| `CN(CCNS(C)(=O)=O)CCSc1ccccc1` | 20.11 | 12.29 |
| `CC(=O)Nc1nc(CN2CCn3ccnc3C2)cs1` | 8.425 | 0.3594 |
| `CCNC(=O)CSc1nc(C)c(C)n1CCOC` | 5.376 | -2.583 |
| `CCS(=O)(=O)N1CCC(C(=O)NCCCN(C)C)CC1` | 3.705 | 7.766 |
| `Cn1cc(S(=O)(=O)NCc2noc(C(F)(F)F)n2)cn1` | 11.72 | 0.9068 |
| `NCc1cccc(C(=O)NCc2ccco2)c1` | 55.83 | 33.54 |
| `CCn1ncnc1CN1CCCCC1c1ccccn1` (stereo unspecified) | 16.89 | 8.516 |
| `CC(C)Cc1nc(C#N)c(NCc2ccncc2)o1` | -8.804 | -7.59 |
| `CC(C)(C)CNCCS(=O)(=O)N1CCOCC1` | 1.829 | 10.75 |
| `Cc1cc(CNC(=O)CCCN2CCCCC2)ccn1` | -2.79 | 6.298 |
| `OCc1conc1C(F)F` | -12.24 | -15.32 |
| `NCc1ccnc(NC2CC2)c1` | 11.17 | 5.809 |
| `OC1(c2nc(-c3cnccn3)no2)CCCCC1` | 0.5168 | -9.104 |
| `CN1CCN(C(C)(C)CNC(=O)Nc2cn[nH]c2)CC1` | -15.01 | -27.4 |
| `CC(=O)c1ccc(C(=O)N[C@@H]2CS(=O)(=O)C[C@H]2O)s1` | 5.167 | 5.932 |
| `COCCOCC(C)NC(=O)C1(C#N)CCC1` (stereo unspecified) | 1.323 | -3.495 |
| `CC(=O)c1ccc(C(=O)N(C)CC2CCCOC2)cc1` (stereo unspecified) | 7.925 | 3.8 |
| `Cc1ccn(Cc2cccc(C(=O)N(C)C)c2)c(=O)c1` | 35.12 | 23.13 |
| `CCn1nccc1C(=O)N1C[C@@H](CO)[C@H](N(C)C)C1` | -6.461 | -17.19 |
| `COc1ncccc1C(=O)NC(C)c1ccncc1` (stereo unspecified) | 14.57 | -5.918 |
| `COC(=O)c1c(C)[nH]c(C(=O)NC2CC2)c1C` | -9.298 | -15.49 |

Once more, the final 8:

| structure | Mtb glucose medium | Mtb cholesterol medium |
|---|---|---|
| `CN1CCN(C(C)(C)CNC(=O)Nc2cn[nH]c2)CC1` | -15.01 | -27.4 |
| `CC(=O)c1ccc(C(=O)N[C@@H]2CS(=O)(=O)C[C@H]2O)s1` | 5.167 | 5.932 |
| `COCCOCC(C)NC(=O)C1(C#N)CCC1` (stereo unspecified) | 1.323 | -3.495 |
| `CC(=O)c1ccc(C(=O)N(C)CC2CCCOC2)cc1` (stereo unspecified) | 7.925 | 3.8 |
| `Cc1ccn(Cc2cccc(C(=O)N(C)C)c2)c(=O)c1` | 35.12 | 23.13 |
| `CCn1nccc1C(=O)N1C[C@@H](CO)[C@H](N(C)C)C1` | -6.461 | -17.19 |
| `COc1ncccc1C(=O)NC(C)c1ccncc1` (stereo unspecified) | 14.57 | -5.918 |
| `COC(=O)c1c(C)[nH]c(C(=O)NC2CC2)c1C` | -9.298 | -15.49 |